{
  "source": "patent US20220175682A1",
  "about": "“Siremadlin Succinate” (Novartis AG, priority 2019, published 2022)",
  "key": {"[1]": {"experiment": "Capsule filling of neat API on sonic filler vacuum drum", "conditions": "two filling DoE, over the dose range, no sieving"}, "[2]": {"experiment": "Direct encapsulation of neat API on vacuum drum filler equipment (filler type not specified)"}},
  "data": [
    {"smiles": "COc1ncc(-c2nc3c(n2C(C)C)[C@H](c2ccc(Cl)cc2)N(c2cc(Cl)cn(C)c2=O)C3=O)c(OC)n1.O=C(O)CCC(=O)O", "note": "[Batch A1]", "values": [
      {"measurement": "filling RSD", "setting": "[1]", "result": "0.92-2.58%"}
    ]},
    {"smiles": "CCC(=O)N1CC[C@H](Nc2ncnc3c2CN(c2cnc(OC)c(C(F)(F)F)c2)CC3)C1", "note": "[6. CDZ173, reference compound]", "values": [
      {"measurement": "fillability with the processing method", "setting": "[2]; listed as Line 6", "result": "borderline fillable"}
    ]},
    {"smiles": "CCC(=O)N1CC[C@H](Nc2ncnc3c2CN(c2cnc(OC)c(C(F)(F)F)c2)CC3)C1", "note": "[7. CDZ173, reference compound]", "values": [
      {"measurement": "fillability with the processing method", "setting": "[2]; listed as line 7", "result": "not fillable"}
    ]},
    {"smiles": "CC1(N)CCN(c2cccnc2NC(=O)c2nc(-c3ncccc3C(F)(F)F)cnc2N)CC1", "note": "[5. LXS196, reference compound]", "values": [
      {"measurement": "percentage of good capsules of the total number of produced capsules", "setting": "[2]; throughput superior than 40,000 capsules within 6 hours", "result": 98.8, "unit": "%"}
    ]}
  ]
}
